Experimental findings from publication doi:10.1101/2023.07.23.550247 are described below.

Test [1] addresses FLAG-tagged Keratin 18 S30A (human). Nature of the test: co-IP.
Test [2] has the same target. Nature of the test: co-IP. This is another data set of the same source.

Where two headings read alike, the source gives them in different places. No constants are given. Whether binding was seen depends on the method and setting. Binding seen in cells or lysates may run through a third protein. Binding can be weak; no strength is given.

B1: isocitrate dehydrogenase IDH3A (enzyme, UniProt P50213 28-366)
chain: TGGVQTVTLIPGDGIGPEISAAVMKIFDAAKAPIQWEERNVTAIQGPGGKWMIPSEAKESMDKNKMGLKGPLKTPIAAGHPSMNLLLRKTFDLYANVRPCVSIEGYKTPYTDVNIVTIRENTEGEYSGIEHVIVDGVVQSIKLITEGASKRIAEFAFEYARNNHRSNVTAVHKANIMRMSDGLFLQKCREVAESCKDIKFNEMYLDTVCLNMVQDPSQFDVLVMPNLYGDILSDLCAGLIGGLGVTPSGNIGANGVAIFESVHGTAPDIAGKDMANPTALLLSAVMMLRHMGLFDHAARIEAACFATIKDGKSLTKDLGGNAKCSDFTEEICRRVKDLD
Consider B1, for which the binding result in test [1] and in test [2] was “binds” in each case.

B2: isocitrate dehydrogenase IDH3G (enzyme, UniProt P51553 40-393)
chain: FSEQTIPPSAKYGGRHTVTMIPGDGIGPELMLHVKSVFRHACVPVDFEEVHVSSNADEEDIRNAIMAIRRNRVALKGNIETNHNLPPSHKSRNNILRTSLDLYANVIHCKSLPGVVTRHKDIDILIVRENTEGEYSSLEHESVAGVVESLKIITKAKSLRIAEYAFKLAQESGRKKVTAVHKANIMKLGDGLFLQCCREVAARYPQITFENMIVDNTTMQLVSRPQQFDVMVMPNLYGNIVNNVCAGLVGGPGLVAGANYGHVYAVFETATRNTGKSIANKNIANPTATLLASCMMLDHLKLHSYATSIRKAVLASMDNENMHTPDIGGQGTTSEAIQDVIRHIRVINGRAVEA
As to B2, the binding result in test [1] and in test [2] was “binds” each time.

B3: isocitrate dehydrogenase IDH2 (enzyme, UniProt P48735 40-452)
chain: ADKRIKVAKPVVEMDGDEMTRIIWQFIKEKLILPHVDIQLKYFDLGLPNRDQTDDQVTIDSALATQKYSVAVKCATITPDEARVEEFKLKKMWKSPNGTIRNILGGTVFREPIICKNIPRLVPGWTKPITIGRHAHGDQYKATDFVADRAGTFKMVFTPKDGSGVKEWEVYNFPAGGVGMGMYNTDESISGFAHSCFQYAIQKKWPLYMSTKNTILKAYDGRFKDIFQEIFDKHYKTDFDKNKIWYEHRLIDDMVAQVLKSSGGFVWACKNYDGDVQSDILAQGFGSLGLMTSVLVCPDGKTIEAEAAHGTVTRHYREHQKGRPTSTNPIASIFAWTRGLEHRGKLDGNQDLIRFAQMLEKVCVETVESGAMTKDLAGCIHGLSNVKLNEHFLNTTDFLDTIKSNLDRALGRQ
Turning to B3, the binding result in test [1] and in test [2] was “binds” in each case.
